The supplement of paper PMC8426693
The list shows a part of the results.

test system: SARS-CoV-2 3_s2m RNA; test: NMR binding call after quantification (hit when 2 of 3 NMR criteria are met) (binary (1 = binding, 0 = not binding)); higher = binding; conditions: RNA concentration 10 µM; fragment concentration 200 µM; 293 K

Question: Which NMR binding call does the source give for `CC(=O)N1CCC(c2c[nH]c3ccccc23)CC1` here?
Answer: 0

Question: For `Cc1sc2ncnc(N(C)C)c2c1C`, which NMR binding call is on record?
Answer: 0

Question: How did the NMR binding call turn out when `CS(=O)(=O)NCCc1ccc(F)cc1` was run?
Answer: 0

Question: With `CC(C)n1cc(C(=O)O)nn1` as the molecule, how does the NMR binding call read?
Answer: 0

Question: `CS(=O)(=O)Nc1ccc(CN)cc1.Cl` was tested. Which NMR binding call did it give?
Answer: 0

Question: With `COc1ccccc1N1CCN(CC#N)CC1` as the molecule, how does the NMR binding call read?
Answer: 0

Question: With `CN(C)Cc1nc(C2(N)CCCC2)no1` as the molecule, how does the NMR binding call read?
Answer: 0

Question: How did the NMR binding call turn out when `Nc1cccc(OCc2ccccc2)c1` was run?
Answer: 0

Question: Which NMR binding call does the source give for `COc1ccc(NCc2ccccc2O)cc1` here?
Answer: 0

Question: `Oc1ccccc1CN1CCc2ccccc2C1` was tested. Which NMR binding call did it give?
Answer: 0

Question: How did the NMR binding call turn out when `CS(=O)(=O)NC1(C(=O)O)CCCCC1` was run?
Answer: 0

Question: With `Oc1ncc(NCCc2ccccc2)c(O)n1` as the molecule, how does the NMR binding call read?
Answer: 0

Question: With `c1csc(CNCc2ccncc2)c1` as the molecule, how does the NMR binding call read?
Answer: 0

Question: With `CCc1nnc(NC(=O)C(F)(F)F)s1` as the molecule, how does the NMR binding call read?
Answer: 0
